The text below walks through data of publication PMC2638020.

Amino acid sequences for entries named in this document (tags omitted). A change or cut given only in a name is not applied to a line headed by its entry. Chains listed by the source or under a name are the forms on record and can include a tag or linker. Residues count along the entry.
UniProt P23469, residues 107-697: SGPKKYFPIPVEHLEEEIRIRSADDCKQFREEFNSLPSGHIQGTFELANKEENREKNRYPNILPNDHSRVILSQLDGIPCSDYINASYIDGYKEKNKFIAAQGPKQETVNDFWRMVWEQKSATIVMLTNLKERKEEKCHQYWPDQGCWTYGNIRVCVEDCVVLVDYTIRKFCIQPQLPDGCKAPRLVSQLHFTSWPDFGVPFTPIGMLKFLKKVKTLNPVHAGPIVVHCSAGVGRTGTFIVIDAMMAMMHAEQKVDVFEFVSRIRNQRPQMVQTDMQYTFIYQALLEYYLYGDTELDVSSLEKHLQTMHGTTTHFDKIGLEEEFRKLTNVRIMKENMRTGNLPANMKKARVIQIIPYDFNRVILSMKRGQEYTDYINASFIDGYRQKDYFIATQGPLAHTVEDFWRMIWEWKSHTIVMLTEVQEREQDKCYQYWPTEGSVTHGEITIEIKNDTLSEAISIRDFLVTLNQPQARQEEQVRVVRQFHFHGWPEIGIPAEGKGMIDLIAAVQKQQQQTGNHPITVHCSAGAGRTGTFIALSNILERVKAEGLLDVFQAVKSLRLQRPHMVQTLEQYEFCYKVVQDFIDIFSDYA
RPTPγ tandem phosphatase domains, mutant DDKK (P23470, form named): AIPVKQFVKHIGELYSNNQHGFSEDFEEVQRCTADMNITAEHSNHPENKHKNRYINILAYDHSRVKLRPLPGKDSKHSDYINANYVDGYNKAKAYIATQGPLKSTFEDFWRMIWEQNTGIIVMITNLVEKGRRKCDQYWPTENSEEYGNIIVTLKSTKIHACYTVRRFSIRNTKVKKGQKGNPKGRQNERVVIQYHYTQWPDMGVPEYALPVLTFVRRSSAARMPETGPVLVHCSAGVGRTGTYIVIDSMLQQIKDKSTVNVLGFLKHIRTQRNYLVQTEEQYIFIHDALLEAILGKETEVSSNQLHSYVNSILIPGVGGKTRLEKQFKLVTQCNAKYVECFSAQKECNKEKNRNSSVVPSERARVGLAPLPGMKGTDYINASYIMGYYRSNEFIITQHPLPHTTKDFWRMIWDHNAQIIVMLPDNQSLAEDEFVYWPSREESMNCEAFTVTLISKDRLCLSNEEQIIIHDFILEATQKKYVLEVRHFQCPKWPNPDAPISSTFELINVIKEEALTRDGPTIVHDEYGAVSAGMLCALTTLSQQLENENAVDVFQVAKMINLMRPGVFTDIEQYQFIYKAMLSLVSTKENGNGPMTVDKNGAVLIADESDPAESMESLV
RPTPγ tandem phosphatase domains, mutant RKEE (P23470, form named): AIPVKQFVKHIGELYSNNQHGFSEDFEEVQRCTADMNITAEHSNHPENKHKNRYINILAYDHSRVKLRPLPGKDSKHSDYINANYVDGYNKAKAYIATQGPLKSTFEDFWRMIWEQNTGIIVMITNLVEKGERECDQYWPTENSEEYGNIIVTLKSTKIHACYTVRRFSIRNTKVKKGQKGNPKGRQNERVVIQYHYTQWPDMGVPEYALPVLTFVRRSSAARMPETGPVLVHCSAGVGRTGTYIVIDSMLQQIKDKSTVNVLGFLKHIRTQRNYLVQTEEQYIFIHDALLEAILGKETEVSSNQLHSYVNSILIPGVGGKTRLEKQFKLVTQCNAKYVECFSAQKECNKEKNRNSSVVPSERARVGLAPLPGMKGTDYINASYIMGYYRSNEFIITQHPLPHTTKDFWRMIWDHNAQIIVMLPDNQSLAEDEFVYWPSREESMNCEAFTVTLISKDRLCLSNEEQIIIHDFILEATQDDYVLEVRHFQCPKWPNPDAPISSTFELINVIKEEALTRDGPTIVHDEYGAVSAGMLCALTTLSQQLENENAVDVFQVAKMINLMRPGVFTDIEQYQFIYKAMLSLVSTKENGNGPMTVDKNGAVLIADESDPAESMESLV

Test [1] addresses RPTPɛ tandem phosphatase domains (human) (UniProt P23469). In words: AUC; sedimentation velocity; 0.2–0.8 mg/ml protein in 10 mM HEPES (pH 7.5), 150 mM NaCl, 1 mM TCEP, 8°C, 50,000 rpm; c(s) distributions (SEDFIT); both purified.
In test [2] the target is RPTPγ tandem phosphatase domains, mutant DDKK (human) (UniProt P23470). In words: AUC; sedimentation equilibrium; 0.2, 0.4 and 0.8 mg/ml, 7500 and 10,000 rpm; global fit with a self-association model; dimer to monomers; both purified.
The target is the same in test [3]. In words: AUC; sedimentation velocity; 0.2–0.8 mg/ml protein in 10 mM HEPES (pH 7.5), 150 mM NaCl, 1 mM TCEP, 8°C, 50,000 rpm; c(s) distributions (SEDFIT); both purified.
In test [4] the target is RPTPγ tandem phosphatase domains, mutant RKEE (human) (UniProt P23470). In words: AUC; sedimentation equilibrium; 0.2, 0.4 and 0.8 mg/ml, 7500 and 10,000 rpm; global fit with a self-association model; dimer to monomers; both purified.
Test [5] shares this target. The test is described as follows: AUC; sedimentation velocity; 0.2–0.8 mg/ml protein in 10 mM HEPES (pH 7.5), 150 mM NaCl, 1 mM TCEP, 8°C, 50,000 rpm; c(s) distributions (SEDFIT); both purified.

These are yes or no findings as the source states them, for the method shown.

As to “RPTPɛ tandem phosphatase domains (from UniProt P23469 107-697) (domain or fragment)”, the binding entry in test [1] is reported as “no binding (tested: 0.2–0.8 mg/ml)”.
On to “RPTPγ tandem phosphatase domains, mutant DDKK (from UniProt P23470 827-1445) (domain or fragment)”, for which the binding entry is “no binding (tested: 0.2, 0.4, and 0.8 mg/ml)” in test [2]; “no binding (tested: 0.4 mg/ml)” in test [3].
Regarding “RPTPγ tandem phosphatase domains, mutant RKEE (from UniProt P23470 827-1445) (domain or fragment)”, the binding result was “no binding (tested: 0.2, 0.4, and 0.8 mg/ml)” in test [4]; “no binding (tested: 0.8 mg/ml)” in test [5].
